Source: the M2OR odorant receptor database
Only a part is listed here, and it is no random draw. Calls are pooled over several reports, among them a noisy single-well screen. This is one part of the list.

Columns and labels:
Conditions in all cases: stereoisomer not certain
OR51A2 (Homo sapiens) = molecular target: T1, OR51A2 (Homo sapiens) (UniProt Q8NGJ7)
T1 sequence (whole entry): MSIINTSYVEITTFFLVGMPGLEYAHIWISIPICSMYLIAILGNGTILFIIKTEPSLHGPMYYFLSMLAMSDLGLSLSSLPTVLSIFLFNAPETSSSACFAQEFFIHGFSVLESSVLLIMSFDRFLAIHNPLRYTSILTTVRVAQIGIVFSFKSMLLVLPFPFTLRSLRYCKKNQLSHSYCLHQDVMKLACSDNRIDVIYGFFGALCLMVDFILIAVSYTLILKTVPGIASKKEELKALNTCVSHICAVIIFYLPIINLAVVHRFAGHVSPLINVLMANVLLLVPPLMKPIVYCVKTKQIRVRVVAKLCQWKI
Outline: (§1)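 Values were gathered from published papers (main text and supplementary material), with extra details requested from the original authors when needed, and checked for typos and inconsistencies. Each receptor–molecule pair is called responsive (active) if the original authors judged the measured signal statistically different from baseline, and non-responsive (inactive) otherwise. Assay methods varied by source, often transient mammalian cell-line luciferase assays. Recorded details include cell line, G-protein, co-transfected protein and tags.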

OR51B2 (Homo sapiens) = molecular target: T2, OR51B2 (Homo sapiens) (UniProt Q9Y5P1)
T2 sequence (whole entry): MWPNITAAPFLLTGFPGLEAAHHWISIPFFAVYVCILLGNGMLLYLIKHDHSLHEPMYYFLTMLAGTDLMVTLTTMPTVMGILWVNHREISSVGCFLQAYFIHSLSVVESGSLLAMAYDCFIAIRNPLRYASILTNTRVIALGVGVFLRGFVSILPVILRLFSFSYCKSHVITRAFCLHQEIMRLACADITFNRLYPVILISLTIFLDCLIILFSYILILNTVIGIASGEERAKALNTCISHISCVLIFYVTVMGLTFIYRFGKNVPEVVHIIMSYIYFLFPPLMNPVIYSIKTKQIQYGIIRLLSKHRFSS
Outline: as §1

OR4S2 (Homo sapiens) = molecular target: T3, OR4S2 (Homo sapiens) (UniProt Q8NH73)
T3 sequence (whole entry): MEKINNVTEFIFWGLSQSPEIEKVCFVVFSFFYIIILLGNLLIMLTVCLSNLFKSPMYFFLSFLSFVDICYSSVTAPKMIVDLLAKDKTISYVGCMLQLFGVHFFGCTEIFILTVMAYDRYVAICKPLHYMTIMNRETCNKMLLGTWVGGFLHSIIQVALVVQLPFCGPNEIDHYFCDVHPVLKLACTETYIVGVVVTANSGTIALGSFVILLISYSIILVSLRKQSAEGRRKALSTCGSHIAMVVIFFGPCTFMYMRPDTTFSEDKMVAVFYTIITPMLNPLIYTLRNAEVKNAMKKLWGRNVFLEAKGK
Outline: as §1

OR4X1 = tested on: T4, OR4X1
T4 sequence (whole entry): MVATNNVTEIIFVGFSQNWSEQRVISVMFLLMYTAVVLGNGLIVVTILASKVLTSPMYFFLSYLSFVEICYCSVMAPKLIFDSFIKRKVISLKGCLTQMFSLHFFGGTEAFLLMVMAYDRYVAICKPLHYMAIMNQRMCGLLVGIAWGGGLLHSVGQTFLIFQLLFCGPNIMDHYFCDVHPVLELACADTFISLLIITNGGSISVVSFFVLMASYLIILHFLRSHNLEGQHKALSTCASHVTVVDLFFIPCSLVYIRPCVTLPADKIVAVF
Outline: as §1

OR4X2 (Homo sapiens) = molecular target: T5, OR4X2 (Homo sapiens) (UniProt Q8NGF9)
T5 sequence (whole entry): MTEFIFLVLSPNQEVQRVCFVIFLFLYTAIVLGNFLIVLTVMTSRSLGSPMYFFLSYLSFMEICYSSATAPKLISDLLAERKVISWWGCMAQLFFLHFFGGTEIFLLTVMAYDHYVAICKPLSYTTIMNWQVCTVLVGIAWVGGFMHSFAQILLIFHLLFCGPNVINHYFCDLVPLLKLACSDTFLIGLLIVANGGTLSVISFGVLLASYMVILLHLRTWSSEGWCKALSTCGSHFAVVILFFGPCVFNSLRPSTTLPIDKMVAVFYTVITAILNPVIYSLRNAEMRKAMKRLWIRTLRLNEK
Outline: as §1

OR51D1 (Homo sapiens) = molecular target: T6, OR51D1 (Homo sapiens) (UniProt Q8NGF3)
T6 sequence (whole entry): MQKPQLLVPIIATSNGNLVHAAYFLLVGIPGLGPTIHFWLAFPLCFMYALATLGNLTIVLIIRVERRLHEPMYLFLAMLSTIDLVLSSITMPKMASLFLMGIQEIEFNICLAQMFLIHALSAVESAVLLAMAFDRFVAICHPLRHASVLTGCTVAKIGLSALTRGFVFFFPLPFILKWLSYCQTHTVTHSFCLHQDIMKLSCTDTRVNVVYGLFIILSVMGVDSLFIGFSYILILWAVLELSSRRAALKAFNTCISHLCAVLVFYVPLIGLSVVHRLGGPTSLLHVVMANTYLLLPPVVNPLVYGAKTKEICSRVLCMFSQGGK
Outline: as §1

OR51E1 (Homo sapiens) [1] = molecular target: T7, OR51E1 (Homo sapiens) (UniProt Q8TCB6)
T7 sequence (whole entry): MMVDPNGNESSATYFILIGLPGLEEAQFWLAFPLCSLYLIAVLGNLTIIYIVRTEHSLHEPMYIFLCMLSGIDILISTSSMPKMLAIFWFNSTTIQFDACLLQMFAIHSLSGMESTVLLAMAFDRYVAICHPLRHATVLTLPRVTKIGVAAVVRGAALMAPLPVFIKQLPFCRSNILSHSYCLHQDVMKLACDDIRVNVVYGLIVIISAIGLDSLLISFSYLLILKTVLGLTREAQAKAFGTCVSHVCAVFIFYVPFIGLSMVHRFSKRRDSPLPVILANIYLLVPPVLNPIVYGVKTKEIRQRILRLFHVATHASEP
Outline: as §1

OR51E2 (Homo sapiens) = molecular target: T8, OR51E2 (Homo sapiens) (UniProt Q9H255)
T8 sequence (whole entry): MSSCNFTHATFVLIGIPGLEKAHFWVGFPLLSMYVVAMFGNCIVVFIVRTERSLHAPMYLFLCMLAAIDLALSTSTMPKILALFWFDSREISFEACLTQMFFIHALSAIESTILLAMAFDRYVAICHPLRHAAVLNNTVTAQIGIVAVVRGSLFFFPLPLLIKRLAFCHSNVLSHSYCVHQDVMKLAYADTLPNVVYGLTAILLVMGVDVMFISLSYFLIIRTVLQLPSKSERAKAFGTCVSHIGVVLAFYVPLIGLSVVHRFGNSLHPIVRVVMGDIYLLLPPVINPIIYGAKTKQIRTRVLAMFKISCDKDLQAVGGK
Outline: as §1

OR51G1 (Homo sapiens) = molecular target: T9, OR51G1 (Homo sapiens) (UniProt Q8NGK1)
T9 sequence (whole entry): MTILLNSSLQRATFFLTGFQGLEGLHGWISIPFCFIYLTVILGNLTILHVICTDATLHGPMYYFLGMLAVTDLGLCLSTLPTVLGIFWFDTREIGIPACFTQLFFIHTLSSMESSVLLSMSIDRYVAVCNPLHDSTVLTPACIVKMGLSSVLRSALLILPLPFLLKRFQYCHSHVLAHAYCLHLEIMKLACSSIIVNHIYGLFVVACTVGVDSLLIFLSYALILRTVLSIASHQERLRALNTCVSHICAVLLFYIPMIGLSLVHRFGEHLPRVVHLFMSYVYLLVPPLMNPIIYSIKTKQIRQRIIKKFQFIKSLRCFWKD
Outline: as §1

OR51H1 (Homo sapiens) = molecular target: T10, OR51H1 (Homo sapiens) (UniProt Q8NH63)
T10 sequence (whole entry): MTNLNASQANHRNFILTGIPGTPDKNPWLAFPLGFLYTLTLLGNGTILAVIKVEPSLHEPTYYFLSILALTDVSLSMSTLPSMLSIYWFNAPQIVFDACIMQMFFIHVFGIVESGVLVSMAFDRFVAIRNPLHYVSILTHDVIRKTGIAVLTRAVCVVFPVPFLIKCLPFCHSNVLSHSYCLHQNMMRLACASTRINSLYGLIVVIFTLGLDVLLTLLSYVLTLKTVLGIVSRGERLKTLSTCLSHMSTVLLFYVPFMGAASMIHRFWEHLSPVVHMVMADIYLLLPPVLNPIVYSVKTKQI
Outline: as §1

OR51E1 (Homo sapiens) [2] = molecular target: T11, OR51E1 (Homo sapiens) (UniProt Q8TCB6); remark: listed apart in the source
T11 sequence (whole entry): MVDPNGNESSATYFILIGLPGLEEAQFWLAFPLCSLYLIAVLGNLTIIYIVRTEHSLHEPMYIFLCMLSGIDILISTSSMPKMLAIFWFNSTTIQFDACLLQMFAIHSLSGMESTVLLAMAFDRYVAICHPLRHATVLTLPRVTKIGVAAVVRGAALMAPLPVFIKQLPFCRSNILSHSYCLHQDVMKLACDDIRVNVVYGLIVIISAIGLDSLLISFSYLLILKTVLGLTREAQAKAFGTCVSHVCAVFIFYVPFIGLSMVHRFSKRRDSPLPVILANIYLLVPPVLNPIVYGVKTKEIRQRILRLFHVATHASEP
Outline: as §1

Compound | odorant receptor agonist call (OR51A2 (Homo sapiens)) | odorant receptor agonist call (OR51B2 (Homo sapiens)) | odorant receptor agonist call (OR4S2 (Homo sapiens)) | odorant receptor agonist call (OR4X1) | odorant receptor agonist call (OR4X2 (Homo sapiens)) | odorant receptor agonist call (OR51D1 (Homo sapiens)) | odorant receptor agonist call (OR51E1 (Homo sapiens) [1]) | odorant receptor agonist call (OR51E2 (Homo sapiens)) | odorant receptor agonist call (OR51G1 (Homo sapiens)) | odorant receptor agonist call (OR51H1 (Homo sapiens)) | odorant receptor agonist call (OR51E1 (Homo sapiens) [2])
C=C(C)C1CCC2=CC(=O)CC(C)C2(C)C1 (centres undefined) | inactive | active |  |  |  |  |  |  |  |  | 
CCCCCCCOC(C)=O | inactive | inactive | inactive | inactive | inactive | inactive | inactive | inactive | inactive | inactive | 
CCCCCCOC(=O)CCC | inactive | inactive | inactive | inactive | inactive | inactive | inactive | inactive | inactive | inactive | 
CC1=CCC(C(C)(C)O)CC1 (centres undefined) | inactive | inactive | inactive | inactive | inactive | inactive | inactive | inactive | inactive | inactive | 
CCC1(O)C2(C)CCC(C2)C1(C)C (centres undefined) | inactive | inactive | inactive | inactive | inactive | inactive | active | inactive | inactive | inactive | 
COC(=O)c1ccccc1 |  |  | inactive | inactive | inactive | inactive | active | inactive | inactive | inactive | 
CC1=NC(C)SC1C (centres undefined) |  |  | inactive | inactive | inactive | inactive | inactive | active | inactive | inactive | 
CC12CCC(CC1)C(C)(C)O2 | inactive | inactive | inactive | inactive | inactive | inactive | inactive | inactive | inactive | inactive | 
CC(=O)OC(C)(C)C1CC=C(C)CC1 (centres undefined) | inactive | inactive | inactive | inactive | inactive | inactive | inactive | inactive | inactive | inactive | 
CCCCCCC=O |  |  |  |  |  |  |  | inactive |  |  | inactive
CCCCCCCCOC(C)=O | inactive | inactive | inactive | inactive | inactive | inactive | active | inactive | inactive | inactive | 
O=C1CCCCCCCCCCCC(=O)OCCO1 | inactive | active | inactive | active | inactive | inactive | active | inactive | active | inactive | 
CC(C)C=O | inactive | inactive | inactive | inactive | inactive | inactive | inactive | inactive | inactive | inactive | 
CCCCCC(C)=O |  |  | inactive | inactive | inactive | inactive | inactive | inactive | inactive | inactive | inactive
C=CCc1ccc(OC)c(OC)c1 | inactive | inactive | inactive | inactive | inactive | inactive | inactive | active | inactive | inactive | 

Looked up above.
Value for `CCCCCCCCOC(C)=O` under odorant receptor agonist call (OR51E2 (Homo sapiens)): inactive
Value for `C=C(C)C1CCC2=CC(=O)CC(C)C2(C)C1` (centres undefined) under odorant receptor agonist call (OR51A2 (Homo sapiens)): inactive
